Measured values taken from PMC12882329.
Results are given in words; binding and its absence hold for the method and conditions named. In cells and extracts the contact can be indirect.

Chains of the proteins cited; added tags and fusions are not shown.
UniProt P08103: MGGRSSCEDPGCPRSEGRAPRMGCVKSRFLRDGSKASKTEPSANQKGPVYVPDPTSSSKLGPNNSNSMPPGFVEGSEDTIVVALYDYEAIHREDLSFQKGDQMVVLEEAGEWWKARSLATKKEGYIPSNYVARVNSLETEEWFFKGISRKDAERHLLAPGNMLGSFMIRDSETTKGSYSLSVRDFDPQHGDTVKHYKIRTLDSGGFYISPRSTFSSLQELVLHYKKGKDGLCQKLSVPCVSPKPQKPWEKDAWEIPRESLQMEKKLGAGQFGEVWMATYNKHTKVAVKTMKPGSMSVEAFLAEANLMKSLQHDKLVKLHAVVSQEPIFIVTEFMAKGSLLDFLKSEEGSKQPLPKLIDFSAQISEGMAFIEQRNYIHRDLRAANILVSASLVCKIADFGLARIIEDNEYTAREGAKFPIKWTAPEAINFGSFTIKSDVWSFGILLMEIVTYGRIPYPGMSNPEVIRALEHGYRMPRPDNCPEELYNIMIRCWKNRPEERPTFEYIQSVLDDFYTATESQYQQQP
UniProt P15105: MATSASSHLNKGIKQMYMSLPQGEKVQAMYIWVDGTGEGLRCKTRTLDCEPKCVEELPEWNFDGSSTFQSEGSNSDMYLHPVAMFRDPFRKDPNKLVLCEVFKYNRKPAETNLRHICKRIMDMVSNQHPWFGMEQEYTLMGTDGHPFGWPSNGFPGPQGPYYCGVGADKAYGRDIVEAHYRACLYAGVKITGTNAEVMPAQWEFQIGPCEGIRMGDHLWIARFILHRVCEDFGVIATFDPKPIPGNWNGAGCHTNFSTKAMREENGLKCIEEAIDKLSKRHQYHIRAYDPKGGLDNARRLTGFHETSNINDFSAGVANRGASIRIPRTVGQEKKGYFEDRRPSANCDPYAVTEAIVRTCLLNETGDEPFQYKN

Target: hematopoietic cell kinase (HCK) (UniProt P08103)
Test: co-IP; cells lysed with IP lysis on ice for 30 min; IP antibody incubated with the lysate overnight at 4°C; streptavidin magnetic beads 4 h at 4°C; washed four times; WB; cells and IP antibody not named

With “glutamine synthetase (GS) (from UniProt P15105 1-373) (enzyme)” the binding was “no binding”.
